Test results taken from article PMC7215500.
No constants are given. Whether binding was seen depends on the method and setting. In cells and extracts the contact can be indirect. Binding calls can cover weak binding; strength is not graded here. Sequences can lack the tags named with a protein.

B1: BARELY ANY MERISTEM 1 (BAM1), split-YFP fusion for BiFC (receptor, UniProt O49545 20-1003)
chain: SRPISEFRALLSLKTSLTGAGDDKNSPLSSWKVSTSFCTWIGVTCDVSRRHVTSLDLSGLNLSGTLSPDVSHLRLLQNLSLAENLISGPIPPEISSLSGLRHLNLSNNVFNGSFPDEISSGLVNLRVLDVYNNNLTGDLPVSVTNLTQLRHLHLGGNYFAGKIPPSYGSWPVIEYLAVSGNELVGKIPPEIGNLTTLRELYIGYYNAFEDGLPPEIGNLSELVRFDGANCGLTGEIPPEIGKLQKLDTLFLQVNVFSGPLTWELGTLSSLKSMDLSNNMFTGEIPASFAELKNLTLLNLFRNKLHGEIPEFIGDLPELEVLQLWENNFTGSIPQKLGENGKLNLVDLSSNKLTGTLPPNMCSGNKLETLITLGNFLFGSIPDSLGKCESLTRIRMGENFLNGSIPKGLFGLPKLTQVELQDNYLSGELPVAGGVSVNLGQISLSNNQLSGPLPPAIGNFTGVQKLLLDGNKFQGPIPSEVGKLQQLSKIDFSHNLFSGRIAPEISRCKLLTFVDLSRNELSGEIPNEITAMKILNYLNLSRNHLVGSIPGSISSMQSLTSLDFSYNNLSGLVPGTGQFSYFNYTSFLGNPDLCGPYLGPCKDGVAKGGHQSHSKGPLSASMKLLLVLGLLVCSIAFAVVAIIKARSLKKASESRAWRLTAFQRLDFTCDDVLDSLKEDNIIGKGGAGIVYKGVMPNGDLVAVKRLAAMSRGSSHDHGFNAEIQTLGRIRHRHIVRLLGFCSNHETNLLVYEYMPNGSLGEVLHGKKGGHLHWDTRYKIALEAAKGLCYLHHDCSPLIVHRDVKSNNILLDSNFEAHVADFGLAKFLQDSGTSECMSAIAGSYGYIAPEYAYTLKVDEKSDVYSFGVVLLELVTGRKPVGEFGDGVDIVQWVRKMTDSNKDSVLKVLDPRLSSIPIHEVTHVFYVAMLCVEEQAVERPTMREVVQILTEIPKLPPSKDQPMTESAPESELSPKSGVQSPPDLLNL
B2: BARELY ANY MERISTEM 1 (BAM1) fused to GFP (receptor, UniProt O49545 20-1003)
chain: B1 chain

Tests used:
[1] = target: Tomato leaf curl Guangdong virus (ToLCGdV) C4, split-YFP fusion for BiFC (Tomato leaf curl Guangdong virus); assay: split reporter; BiFC with split YFP; C4-nYFP with BAM1-cYFP, or C4-cYFP with BAM1-nYFP, co-infiltrated into N. benthamiana leaves; confocal microscopy at 3 dpi
[2] = target: Tomato leaf curl Guangdong virus (ToLCGdV) C4 with Myc tag (Tomato leaf curl Guangdong virus); assay: co-IP; AC4-6xMyc and BAM1-GFP co-infiltrated into N. benthamiana leaves, collected at 3 dpi; precipitated with anti-c-Myc agarose affinity gel; blots with anti-GFP and anti-Myc

Row | Binder | binding [1] | binding [2]
1 | B1 | binds | –
2 | B2 | – | binds
